Source: PMC12098592
Results are given in words; binding and its absence hold for the method and conditions named. In cells and extracts the contact can be indirect. Some binding calls cover weakened binding; strength is not graded here. Sequences can lack the tags named with a protein.

Protein sequences, listed by entry. Tags and fused reporters are not part of them.
UniProt P25490: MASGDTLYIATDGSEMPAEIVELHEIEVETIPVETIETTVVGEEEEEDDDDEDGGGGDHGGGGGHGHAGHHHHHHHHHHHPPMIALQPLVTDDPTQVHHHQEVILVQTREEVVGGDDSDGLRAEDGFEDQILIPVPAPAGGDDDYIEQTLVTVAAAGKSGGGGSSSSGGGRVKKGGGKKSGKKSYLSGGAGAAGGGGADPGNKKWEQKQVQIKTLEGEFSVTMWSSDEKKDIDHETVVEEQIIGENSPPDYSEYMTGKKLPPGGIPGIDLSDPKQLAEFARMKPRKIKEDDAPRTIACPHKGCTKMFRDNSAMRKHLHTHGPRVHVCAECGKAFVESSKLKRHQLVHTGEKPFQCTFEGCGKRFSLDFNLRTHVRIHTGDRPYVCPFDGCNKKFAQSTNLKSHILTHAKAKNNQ

Target: T1, wild-type p53-induced phosphatase 1 (Wip1), myc-tagged (UniProt O15297)
T1 sequence: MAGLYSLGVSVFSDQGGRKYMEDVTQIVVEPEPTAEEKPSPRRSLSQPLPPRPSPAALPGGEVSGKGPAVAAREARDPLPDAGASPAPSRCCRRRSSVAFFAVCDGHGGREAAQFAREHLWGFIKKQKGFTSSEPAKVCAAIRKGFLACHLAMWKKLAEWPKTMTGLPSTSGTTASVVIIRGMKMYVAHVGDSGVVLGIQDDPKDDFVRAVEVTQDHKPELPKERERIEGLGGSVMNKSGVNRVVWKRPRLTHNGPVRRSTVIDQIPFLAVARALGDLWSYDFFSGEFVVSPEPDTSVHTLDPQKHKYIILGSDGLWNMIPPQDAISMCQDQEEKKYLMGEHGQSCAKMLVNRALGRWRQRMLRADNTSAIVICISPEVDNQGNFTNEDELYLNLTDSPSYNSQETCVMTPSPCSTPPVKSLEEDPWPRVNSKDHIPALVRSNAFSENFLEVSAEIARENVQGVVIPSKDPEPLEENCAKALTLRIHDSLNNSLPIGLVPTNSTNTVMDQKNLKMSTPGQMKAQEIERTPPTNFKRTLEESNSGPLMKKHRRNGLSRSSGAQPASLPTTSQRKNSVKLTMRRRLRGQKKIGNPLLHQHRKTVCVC
Test: co-IP; HEK293T cells transfected with myc-tagged Wip1 with or without YY1 constructs for 24 hr, treated with 25 μM CCT007093 for 1 hr; lysates immunoprecipitated with anti-Wip1 or anti-YY1 Abs and protein G-sepharose beads overnight at 4°C, then immunoblotting

binding: binds
Substance: Ying Yang 1 (YY1) (from UniProt P25490 1-414)
